# Measured values taken from US20250368740A1.
# No constants are given. Whether binding was seen depends on the method and setting. Some results given as binding are weak or reduced against the parent protein; the word gives no strength.
# T1: peptide 1, bio-… … (145-164) (human)
# T1 sequence (peptide, N-terminal biotin): PSMTLEPNKDLRPGDTVTI
# Biological target: T1, peptide 1, bio-… … (145-164) (human)
# Experiment: ELISA on biotin-labeled overlapping peptides
binder,measurement,value
"murine monoclonal antibody 147# (antibody, V domains shown) VH: QVQLKQSGIELVRPGASVKLSCKTSGYIFTADWIYWVKQRSGQGLEWIGRIYPGVDSTYYNEKFKDKAILTADKSSSTAYMQLNSLKSEDSAVYFCARGGEVRRDFYALDYWGQGTSVTVSS VL: NIVMTQSPESMSMSLGERVTLSCKASENVGTYVSWYQQKPEQSPKLLIYGASNRYTGVPARFTGSGSATDFTLTISSVQAEDLADYHCGQRYSYPFTFGSGTKLEIK",binding,binds
